Experimental data reported in paper PMC12024224.
No constants are given. Whether binding was seen depends on the method and setting. Binding seen in cells or lysates may run through a third protein. Binding calls can cover weak binding; strength is not graded here. Sequences can lack the tags named with a protein.

Target: Sirtuin 3 (SIRT3), Flag-tagged (human)
Assay: co-IP; exogenous: HEK293T cells transfected with Flag-SIRT3 and HA-SLC25A22; immunoprecipitation with anti-Flag or anti-HA, Western blot; IP buffer 150 mM NaCl, 50 mM Tris pH 7.4, 0.5% deoxycholic acid, 1% NP40, 0.1% SDS; overnight at 4 °C

B1: Solute carrier family 25 member A22 (SLC25A22), HA-tagged (protein, UniProt Q9H936 1-323)
chain: MADKQISLPAKLINGGIAGLIGVTCVFPIDLAKTRLQNQQNGQRVYTSMSDCLIKTVRSEGYFGMYRGAAVNLTLVTPEKAIKLAANDFFRHQLSKDGQKLTLLKEMLAGCGAGTCQVIVTTPMEMLKIQLQDAGRIAAQRKILAAQGQLSAQGGAQPSVEAPAAPRPTATQLTRDLLRSRGIAGLYKGLGATLLRDVPFSVVYFPLFANLNQLGRPASEEKSPFYVSFLAGCVAGSAAAVAVNPCDVVKTRLQSLQRGVNEDTYSGILDCARKILRHEGPSAFLKGAYCRALVIAPLFGIAQVVYFLGIAESLLGLLQDPQA
In the case of B1, the binding is reported as “binds”.
